From PubChem BioAssay AID504444 (National Center for Advancing Translational Sciences (NCATS), 2011)
Hit rate of the full screen: of about 360,000 compounds, about 7,500 (2.1%) were called active. The shares of active, inactive and inconclusive entries below differ from those in the screen. The call rests on the fitted dose curve; in most records, active means well fitted inhibition curve with a large enough effect; inconclusive means small, poorly fitted or top-dose-only effect, or effect the other way; inactive means flat fitted curve, though single readings scatter. Potencies of inconclusive entries are doubtful fits and often do not repeat.

assay: Nrf2 qHTS screen for inhibitors; conditions: A549 ARE-Fluc reporter, luciferase luminescence, 18-24 h; series mostly up to 46 µM; further: nearly all actives have a fitted effect of over 60% in size
Procedure, shortened: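 Nrf2 activity is the BugLite luminescence, read 15 min after reagent at room temperature, following CellTiter-Fluor cytotoxicity readout (30 min, 37C). Compound titrations were applied for 18-24 h to 5000 A549 ARE_Fluc cells/well in 5% FBS OPTI-MEM.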
Potency means the concentration at half of the fitted maximal effect.

Compound	Potency
Cc1cc(Br)ccc1NC(=O)CN(C)C(=O)C1CCN(c2ncnc3sc(C)c(C)c23)CC1	inconclusive: 13 µM [falling, partial curve, poor fit]
COc1cc(C(=O)NC(=S)N(CCc2ccccc2)CCc2ccccc2)cc(OC)c1OC	inconclusive: 16.4 µM [falling, single point]
O=S(=O)(c1ccc(F)cc1)N(CCO)CC(O)Cn1c2ccccc2c2ccccc21 (configuration not stated)	inconclusive: 32.6 µM [falling, single point]
CC(=O)c1c(C)[nH]c(C(=O)C(C)Sc2nnc(NC3CC3)s2)c1C (configuration not stated)	active: 16.4 µM
CCc1nnc(NC(=O)CSc2ccc(-c3nc4ccccc4[nH]3)cn2)s1	inconclusive: 23.1 µM [falling, single point]
Cc1cccn2cc(-c3cccc(NC(=O)C(C)C)c3)nc12	inactive
Cc1cc(Cl)ccc1OCC(=O)N(Cc1sccc1C)C1CCS(=O)(=O)C1 (configuration not stated)	inconclusive: 25.9 µM [falling, single point]
CCC(=O)Nc1ccc2nc(SCCOc3ccc(C)cc3OC)sc2c1	inconclusive: 20.6 µM [falling, partial curve, poor fit]
CCn1c(=O)cc(OCC(=O)N2CCN(c3ccc(C)cc3)C(C)C2)c2ccccc21 (configuration not stated)	inconclusive: 23.1 µM [falling, single point]
CC(=O)C1CCC2C3CCC4=CC(=O)C=CC4(C)C3CCC12C (configuration not stated)	inconclusive: 18.4 µM [falling, single point]
O=C(c1c(F)cccc1F)N1CCN(c2cccc(C(F)(F)F)c2)CC1	inconclusive: 13 µM [falling, partial curve, poor fit]
Cn1nc(-c2ccccc2)nc1-c1ccccc1	inconclusive: 9.2 µM [activator, partial curve]
O=c1[nH]ncc2c3ccccc3n(Cc3cccc(Cl)c3)c12	inactive
CC(c1ccco1)N(C(=O)COc1ccc(Cl)cc1Cl)c1ccccn1 (configuration not stated)	inconclusive: 1.64 µM [activator, full curve]
COc1ccc(-c2nnn(CC(=O)N(Cc3cccs3)C(C)C(=O)NCCC(C)C)n2)cc1OC (configuration not stated)	inconclusive: 14.6 µM [falling, partial curve]
COc1ccc(-c2sc3ccc(OC)cc3c2C#Cc2ccccn2)cc1	inactive
O=C(/C=C/c1ccco1)NC(=S)Nc1ccc(N2CCCC2)cc1	inactive
COc1ccc(NC(=O)CNC(=O)c2nn(-c3ccc(OC)cc3OC)c(=O)c3ccccc23)c(OC)c1	inconclusive: 9.2 µM [falling, partial curve]
COc1ccc(CCN2CC(C#N)=C3c4cc(OC)c(OC)cc4CCN3C2)cc1OC	inconclusive: 25.9 µM [falling, single point]
CC(C)OCCCNC(=O)CN1C(=O)c2cccnc2Sc2ccccc21	inconclusive: 29.1 µM [activator, single point]
O=c1c2ccccc2nc(SCc2cccc(F)c2)n1-c1cccc(S(=O)(=O)N2CCCC2)c1	inconclusive: 2.31 µM [falling, partial curve, poor fit]

Compound	Potency
COc1ccc(C(=O)O/N=C(\N)c2ccc(Br)cc2)cc1	inconclusive: 4.11 µM [activator, partial curve, poor fit]
CC(C)(C)OC(=O)N1CCC(NC(=O)c2nc[nH]c2C(=O)NC2CCN(C(=O)OC(C)(C)C)CC2)CC1	inconclusive: 23.1 µM [falling, single point]
CCn1nc(C)c(CNC(=O)Nc2ccc3c(c2)OCO3)c1C	inconclusive: 20.6 µM [activator, single point]
Nc1nnc(COc2ccc(Br)cc2Br)s1	inconclusive: 2.06 µM [activator, partial curve, poor fit]
CCOc1ccc(CNC(=O)C2CCN(c3nnc(-n4c(C)ccc4C)s3)CC2)cc1	active: 14.6 µM
C/C(=N\Nc1cc(C(F)(F)F)ccc1Cl)c1ccccc1O	inactive
CCOc1ccc2c(C)c(C)c(=O)oc2c1OCC	inconclusive: 4.11 µM [falling, full curve]
COc1ccc(-c2cn(-c3ccccc3)c(=S)[nH]2)cc1OC	inconclusive: 29.1 µM [falling, single point]
Cn1cccc1/C=N\NC(=O)Cc1ccc(Br)c2ccccc12	inconclusive: 18.4 µM [falling, single point]
CCNC(=S)N1CCN(S(=O)(=O)c2ccc(C)cc2)CC1	inconclusive: 14.6 µM [falling, partial curve, poor fit]
Cc1cc(-c2nnc(SCC(=O)Nc3cccc(Cl)c3)n2N)n[nH]1	inconclusive: 25.9 µM [falling, single point]
COc1cc2c(cc1NC(=O)COC(=O)C(CCSC)NC(=O)c1ccccc1Cl)oc1ccccc12 (configuration not stated)	inconclusive: 7.31 µM [activator, partial curve, poor fit]
CC(C)(C)N(Cc1ccccc1)C(=O)COC(=O)C1CC(=O)N(Cc2ccccc2)C1 (configuration not stated)	inactive
Cc1cc(C)c(C)c(OCCCCN(C)Cc2ccccc2)c1	inactive
Fc1ccccc1N1CC(c2ccccc2)C(c2cccs2)=N1 (configuration not stated)	inactive
CC12CC(NC(=O)N1CCc1ccccc1)c1ccccc1O2 (configuration not stated)	inconclusive: 23.1 µM [falling, single point]
O=C(Nc1cccc(S(=O)(=O)Nc2ccc(Cl)cc2)c1)c1ccc2c(c1)OCCO2	active: 10.3 µM
O=C(C[C@H]1C[C@H](C(=O)N2CCCCC2)[C@@]2(CCc3ccccc3)c3[nH]c4ccc(Cl)cc4c3CCN2C1=O)NCc1cccc(C(F)(F)F)c1	inconclusive: 29.1 µM [falling, single point]
Fc1ccc(Nc2nc(Oc3ccccc3F)nc(N3CCCC3)n2)cc1	inconclusive: 18.4 µM [falling, single point]
CCOc1ccc(/C=N/N2C(C)CCCC2C)cc1 (configuration not stated)	inconclusive: 13 µM [activator, partial curve]
CCc1nc(SCc2cccnc2)[nH]c(=O)c1C	inconclusive: 10.3 µM [falling, partial curve]

Laid out differently: entries from further up.
O=c1c2ccccc2nc(SCc2cccc(F)c2)n1-c1cccc(S(=O)(=O)N2CCCC2)c1
  Potency: inconclusive: 2.31 µM [falling, partial curve, poor fit]
CCn1nc(C)c(CNC(=O)Nc2ccc3c(c2)OCO3)c1C
  Potency: inconclusive: 20.6 µM [activator, single point]
CCOc1ccc2c(C)c(C)c(=O)oc2c1OCC
  Potency: inconclusive: 4.11 µM [falling, full curve]
